# Measured values published in the supplement of paper PMC3334620.
# The full ranking holds about 33,000 sequences; the median of “E-score (-0.5 to 0.5)” is about -0.0034, and the highest 2% start at about 0.25. The list shows a part of the results.
# Biological target: T1, Yap3 (UniProt P38749)
# T1 sequence: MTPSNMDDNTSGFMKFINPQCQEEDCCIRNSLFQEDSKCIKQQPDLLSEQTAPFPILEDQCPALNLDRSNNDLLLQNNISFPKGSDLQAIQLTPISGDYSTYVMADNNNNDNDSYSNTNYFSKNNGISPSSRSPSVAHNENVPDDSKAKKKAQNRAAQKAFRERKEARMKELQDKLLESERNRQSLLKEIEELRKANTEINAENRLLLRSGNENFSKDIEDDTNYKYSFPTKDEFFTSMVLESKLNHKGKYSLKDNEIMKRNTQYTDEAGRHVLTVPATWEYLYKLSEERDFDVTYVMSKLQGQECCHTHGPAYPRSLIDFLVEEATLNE
# Assay: PBM E-score (8-mer binding enrichment) (E-score (-0.5 to 0.5)); higher = stronger / more preferred TF binding
# Settings: protein concentration: 100 nM; construct: GST-full length
# Summary of the method: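 The E-score, a modified Wilcoxon-Mann-Whitney statistic, was computed by the Universal PBM Analysis Suite for every ungapped eight-base word pooled with its reverse complement. Scans behind it were normalised with masliner after bound GST-tagged yeast transcription factors were detected with fluorescent anti-GST. The proteins, at about 100-200 nM, had been applied to universal all-10-mer Agilent arrays made double-stranded by primer extension.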
row,Sequence,PBM E-score
1,AGAGGGCT,-0.204
2,ATGCCATA,0.115
3,AACGTTCT,0.0965
4,ACATCAGG,0.0288
5,CCGTCACC,-0.216
6,GATCGGCA,-0.0139
7,AAAAAAGC,0.145
8,CCGATGGC,-0.0597
9,CACTATCC,0.0794
10,GCTGAATA,0.199
11,AATGGTCA,0.26
12,TCGACAGA,-0.041
13,CGCGACCC,-0.22
14,TGCTAAAA,0.0161
15,CAATTCTG,0.0762
16,AACCCTGT,-0.12
17,GTGTGAAC,0.0569
18,TGGGCACA,-0.0818
19,ATGGGCAA,0.0969
20,ACTTGCAA,0.069
21,AAGGTAAC,0.121
22,TCAGTTCA,0.179
23,ATTGTTTG,0.176
24,TAGATCGA,0.123
25,GGGAGAAC,-0.201

# Look-ups from the entries so far.
# Entry for TCAGTTCA under PBM E-score: 0.179
# Entry for TAGATCGA under PBM E-score: 0.123
# Entry for CAATTCTG under PBM E-score: 0.0762

# More entries.

row,Sequence,PBM E-score
1,GATTGCTA,-0.062
2,AGCCCTTG,-0.0902
3,ACGGATTC,0.0415
4,TATGCGGA,0.0888
5,GTATTTCA,0.123
6,CAGGGACA,-0.0295
7,AGCTCGGA,-0.113
8,CGCACGCA,0.0495
9,CCTACTTA,0.0606
10,ACAGACAA,0.285
11,GCTGGCCA,-0.15
12,ATCTACAG,0.105
13,CAATGTGA,0.181
14,GAGCTCAC,-0.0761
15,AAGTCTCT,-0.228
16,AGACGGGC,-0.0414
17,AAATATCG,0.188
18,CGCTGGGA,-0.24
19,ACCATCCT,-0.0941
20,ACCAAGGT,-0.0316
21,TCTGTAAA,0.0633
22,CACCCCAC,0.151
23,CGAGTACG,-0.147
24,CAACTACG,0.0989
25,GAGGCGCC,-0.166

row,Sequence,PBM E-score
1,CGTTGTTA,0.222
2,TAGGAAGA,-0.143
3,AGTGTTGG,0.0523
4,CAAACCCC,-0.151
5,CGTGACGC,0.134
6,AATCAGCT,0.0944
7,AACAGCGT,0.093
8,GTCTCCTA,-0.0882
9,TGCTAGAA,-0.0446
10,CTGAGGCC,-0.124
11,ACAAAGAA,0.257
12,GAATAAGC,-0.0239
13,GATAATGC,0.0805
14,GATCGGAA,-0.0607
15,ATTAACTG,0.241
16,AGCCTTGA,-0.0624
17,AGGCACAG,-0.251
18,ATCGGTAA,0.0893
19,AGTTGCTA,0.193
20,CAGACACA,-0.047
21,CTAGGGTC,-0.279
22,CACGGGCG,-0.0851
23,TCACTCGA,-0.0644
24,CGAATAAA,0.14
25,CGAGGCAA,0.17

row,Sequence,PBM E-score
1,ATCGCTAA,0.113
2,GCACACGA,-0.00656
3,CGAGGGCA,0.0481
4,ATACAAAG,0.109
5,ACTTACCG,0.111
6,GGAGGCAC,-0.121
7,CACCTGTA,-0.153
8,ACTAGACC,0.154
9,AACTCGCC,0.0692
10,ATCGGTGC,0.0156
11,AATCATTC,0.216
12,ACACAACG,0.111
13,AAGGCAGT,-0.0469
14,AAGGCATA,0.114
15,GTGGGTCA,-0.0942
16,AAGCCGTA,0.0253
17,CTGCTAAG,-0.291
18,GAATAGAA,0.125
19,AGACCGAA,-0.0231
20,ACGTACGG,0.0636
21,ACGCATGG,-0.0836
22,GATATCGC,0.104
23,ACTGGGTG,-0.0414
24,AAAACCCA,0.195
25,GCTCGCAA,0.0657

row,Sequence,PBM E-score
1,ACTCTTTC,-0.0504
2,ATCTAGAA,0.0495
3,CCTTCTGA,-0.028
4,CCTCAGGA,-0.184
5,CAGGCCTG,-0.0728
6,CGCAGGGA,-0.258
7,ACTCGATG,0.0263
8,GGATACGA,0.0439
9,ATAAGCCC,-0.159
10,ATGATAAA,0.228
11,CATCTAGG,-0.186
12,CTTCGTAA,0.141
13,CCTAATAA,0.146
14,CCCCAAAA,-0.0376
15,ATATACGG,0.0974
16,CAACACAC,0.0886
17,AAGTCGTC,-0.101
18,CTGCATTC,0.0726
19,GCTACCCA,-0.125
20,AACTGGGA,-0.16
21,AGAGGGTC,-0.324
22,AAAAAGGG,0.125
23,AGGGAAAA,0.0983
24,GACAGAGC,-0.245
25,AGTGTAGA,-0.069

row,Sequence,PBM E-score
1,ATATCAAA,0.244
2,TAGATCTA,0.142
3,AGCCGTTC,-0.178
4,GGTCGGAC,-0.254
5,CGCAAGCG,-0.103
6,TACCCCTA,0.0791
7,ACTGGATG,-0.113
8,AGCCAGGG,-0.289
9,CCATGTGC,-0.0217
10,AATGCAGT,0.0696
11,CCACACCG,-0.1
12,CAGCAGCG,-0.108
13,CCTGCGAC,-0.132
14,AGCCTCTC,-0.228
15,GACGCTCA,-0.105
16,GCAGAAGC,-0.163
17,AGGTCGGG,-0.218
18,AGCTAGCA,-0.11
19,ACAGTTAT,0.181
20,ATGAGGGA,-0.0878
21,AGATGTTG,-0.168
22,AGTTTAAA,0.16
23,GACCCCAA,-0.146
24,GGCCCAAA,-0.0982
25,CAGCGCAA,-0.0782

row,Sequence,PBM E-score
1,AAGACATG,0.0188
2,GAATGTGC,-0.0245
3,ATCATGAA,0.154
4,ACTGGACC,-0.196
5,CAGTCCAG,-0.244
6,AGATAAAC,0.111
7,CGTAAGCA,0.131
8,CTTGGGGC,-0.195
9,CGGGCCAG,-0.2
10,CCTCGCCG,-0.261
11,CGCGGGCA,0.0869
12,CAGCCTAC,-0.0548
13,CTCTACGC,-0.0435
14,AATTAACT,0.176
15,AAGCGTAT,0.00643
16,AAGCGCTA,0.0946
17,ACGGGCGC,-0.0129
18,AAAACAAG,0.138
19,CGTGCGAG,-0.0121
20,CTTACGAC,0.0511
21,CGCATTAG,-0.0585
22,AAAGTCAG,0.0561
